In the supplement of paper PMC7238544:
Structures can show the parent of a compound that is named as a salt. ± gives the standard deviation of the averaged measurements. This is one part of the list. The data scatter; read single values as rough.

tested on: hAMSC donor 1; assay: transfection efficiency (EGFP+ cells / Hoechst count) fold change vs vehicle control (ratio); hAMSC are human adipose-derived mesenchymal stem cells given an EGFP-luciferase plasmid by lipofection; higher = enhanced transfection; conditions: priming compound concentration 0.2 µM

Q: With `CN(C)CCC=C1c2ccccc2COc2ccccc21` [Doxepin hydrochloride] as the compound, how does the transfection efficiency read?
A: 0.777 ± 0.32

Q: `C[C@@H]1CN(CCCn2c3ccccc3c3ccccc32)C[C@H](C)N1` [Rimcazole dihydrochloride] was tested. Which transfection efficiency did it give?
A: 0.772 ± 0.12

Q: How did the transfection efficiency turn out when `Nc1nc2ccc(OC(F)(F)F)cc2s1` [Riluzole hydrochloride] was run?
A: 0.88 ± 0.029

Q: `NC(N)=Nc1nc(CSCC/C(N)=N/S(N)(=O)=O)cs1` [Famotidine] was tested. Which transfection efficiency did it give?
A: 1.21 ± 0.14

Q: For `CN(C)CCN(Cc1ccccc1)c1ccccn1` [Tripelennamine hydrochloride], which transfection efficiency is on record?
A: 0.873 ± 0.077

same assay, conditions: priming compound concentration 1.7 µM

Q: With `O=C1NC(=O)C(c2ccccc2)(c2ccccc2)N1` [Dilantin] as the compound, how does the transfection efficiency read?
A: 0.984 ± 0.41

Q: Which transfection efficiency does the source give for `CC(C)C[C@H](NC(=O)[C@@H](COC(C)(C)C)NC(=O)[C@H](Cc1ccc(O)cc1)NC(=O)[C@H](CO)NC(=O)[C@H](Cc1c[nH]c2ccccc12)NC(=O)[C@H](Cc1cnc[nH]1)NC(=O)[C@@H]1CCC(=O)N1)C(=O)N[C@@H](CCCNC(=N)N)C(=O)N1CCC[C@H]1C(=O)NNC(N)=O` [Goserelin acetate] here?
A: 1.06 ± 0.25

Q: Which transfection efficiency does the source give for `O=C1CN(/N=C/c2ccc(-c3ccc([N+](=O)[O-])cc3)o2)C(=O)N1` [Dantrolene sodium] here?
A: 1.06 ± 0.22

Q: How did the transfection efficiency turn out when `CCN(CC)CC(=O)Nc1c(C)cccc1C` [Lidocaine] was run?
A: 0.811 ± 0.09

Q: With `C=CC[C@@H]1/C=C(\C)C[C@H](C)C[C@H](OC)[C@H]2O[C@@](O)(C(=O)C(=O)N3CCCC[C@H]3C(=O)O[C@H](/C(C)=C/[C@@H]3CC[C@@H](O)[C@H](OC)C3)[C@H](C)[C@@H](O)CC1=O)[C@H](C)C[C@@H]2OC` [Tacrolimus] as the compound, how does the transfection efficiency read?
A: 1.01 ± 0.33

Q: How did the transfection efficiency turn out when `CC[C@@H](CO)NCCN[C@@H](CC)CO` [Ethambutol] was run?
A: 1.11 ± 0.12

Q: For `O=C(O)CCCc1ccccc1` [4-Phenylbutyric acid], which transfection efficiency is on record?
A: 1.08 ± 0.39

Q: How did the transfection efficiency turn out when `O=c1c(-c2ccccc2)c1-c1ccccc1` [Diphenylcyclopropenone] was run?
A: 1.22 ± 0.21

Q: With `CC(C)(C(=O)c1cccnc1)c1cccnc1` [Metyrapone] as the compound, how does the transfection efficiency read?
A: 1.27 ± 0.28

Q: `COc1c(N2CCNC(C)C2)c(F)cc2c(=O)c(C(=O)O)cn(C3CC3)c12` (configuration not stated) [Gatifloxacin] was tested. Which transfection efficiency did it give?
A: 1.11 ± 0.28

Q: How did the transfection efficiency turn out when `Cc1cnc(C(=O)NCCc2ccc(S(=O)(=O)NC(=O)NC3CCCCC3)cc2)cn1` [Glipizide] was run?
A: 0.914 ± 0.12

Q: For `Clc1ccc(CO/N=C(\Cn2ccnc2)c2ccc(Cl)cc2Cl)c(Cl)c1` [Oxiconazole nitrate], which transfection efficiency is on record?
A: 0.953 ± 0.072

Q: Which transfection efficiency does the source give for `CN1CCN(CCCN2c3ccccc3Sc3ccc(Cl)cc32)CC1` [Prochlorperazine maleate] here?
A: 0.953 ± 0.068

Q: Which transfection efficiency does the source give for `C=C1/C(=C\C=C2/CCC[C@]3(C)[C@@H]([C@H](C)CCCC(C)(C)O)CC[C@@H]23)C[C@@H](O)C[C@@H]1O` [Calcitriol] here?
A: 0.91 ± 0.13

Q: How did the transfection efficiency turn out when `C#C[C@]1(O)CC[C@H]2[C@@H]3CCc4cc(OC)ccc4[C@H]3CC[C@@]21C` [Mestranol] was run?
A: 1.08 ± 0.16

Q: With `Nc1ccn([C@@H]2O[C@H](CO)[C@@H](O)[C@@H]2O)c(=O)n1` [Cytarabine] as the compound, how does the transfection efficiency read?
A: 1.39 ± 0.065

Q: `CC/C(=C(\c1ccccc1)c1ccc(OCCN(C)C)cc1)c1ccccc1` [Tamoxifen] was tested. Which transfection efficiency did it give?
A: 0.706 ± 0.3

Q: Which transfection efficiency does the source give for `COc1ccc(CN2CCN(C(c3ccc(F)cc3)c3ccc(F)cc3)CC2)c(OC)c1OC` [Lomerizine dihydrochloride] here?
A: 0.956 ± 0.98

Q: `CC(C)NCC(O)COc1cccc2ccccc12` (configuration not stated) [Propranolol hydrochloride] was tested. Which transfection efficiency did it give?
A: 1.07 ± 0.28

Q: Which transfection efficiency does the source give for `CN[C@@H]1[C@H](O)[C@H](NC)[C@H]2O[C@@]3(O)C(=O)C[C@@H](C)O[C@H]3O[C@@H]2[C@H]1O` [Spectinomycin] here?
A: 1.31 ± 0.47

Q: Which transfection efficiency does the source give for `C=C[C@H]1CN2CC[C@H]1C[C@@H]2[C@@H](O)c1ccnc2ccc(OC)cc12` [Quinidine] here?
A: 0.68 ± 0.048

Q: How did the transfection efficiency turn out when `N[C@@H]1CONC1=O` [D-Cycloserine] was run?
A: 1.19 ± 0.18

Q: How did the transfection efficiency turn out when `CC(C)NCC(O)c1ccc(O)c(O)c1` (configuration not stated) [Isoproterenol hydrochloride] was run?
A: 0.894 ± 0.21

Q: `NC(=O)c1cccnc1` [Nicotinamide] was tested. Which transfection efficiency did it give?
A: 1.09 ± 0.11

Q: `CC(=O)Oc1ccccc1C(=O)Nc1ncc([N+](=O)[O-])s1` [Nitazoxanide] was tested. Which transfection efficiency did it give?
A: 1.45 ± 0.45

Q: Which transfection efficiency does the source give for `Cc1nc2ccccn2c(=O)c1CCN1CCC(C(=O)c2ccc(F)cc2)CC1` [Pirenperone] here?
A: 1.07 ± 0.26

Q: Which transfection efficiency does the source give for `CC(C)(C(=O)O)c1ccc(C(O)CCCN2CCC(C(O)(c3ccccc3)c3ccccc3)CC2)cc1` (configuration not stated) [Fexofenadine hydrochloride] here?
A: 0.974 ± 0.21

Q: How did the transfection efficiency turn out when `CC1CNc2c(cccc2S(=O)(=O)N[C@@H](CCCNC(=N)N)C(=O)N2CC[C@@H](C)C[C@@H]2C(=O)O)C1` (some centres not stated) [Argatroban] was run?
A: 1.08 ± 0.11

Q: For `O=c1[nH]cnc2c1ncn2[C@H]1CC[C@@H](CO)O1` [Didanosine], which transfection efficiency is on record?
A: 1.15 ± 0.061

Q: Which transfection efficiency does the source give for `CC(C)NCC(O)COc1ccc(COCCOC(C)C)cc1` (configuration not stated) [Bisoprolol fumarate] here?
A: 0.979 ± 0.32

Q: With `CCN1CCN(c2cc3c(cc2F)c(=O)c(C(=O)O)cn3C2CC2)CC1` [Enrofloxacin] as the compound, how does the transfection efficiency read?
A: 1.05 ± 0.11

Q: `O=C1N(c2ccccc2)c2ccccc2C1(Cc1ccncc1)Cc1ccncc1` [Linopirdine dihydrochloride] was tested. Which transfection efficiency did it give?
A: 1.21 ± 0.22

Q: With `CN(C)CCC=C1c2ccccc2COc2ccccc21` [Doxepin hydrochloride] as the compound, how does the transfection efficiency read?
A: 0.929 ± 0.39

Q: `C[C@@H]1CN(CCCn2c3ccccc3c3ccccc32)C[C@H](C)N1` [Rimcazole dihydrochloride] was tested. Which transfection efficiency did it give?
A: 1.05 ± 0.29

Q: For `Nc1nc2ccc(OC(F)(F)F)cc2s1` [Riluzole hydrochloride], which transfection efficiency is on record?
A: 0.996 ± 0.16

Q: With `NC(N)=Nc1nc(CSCC/C(N)=N/S(N)(=O)=O)cs1` [Famotidine] as the compound, how does the transfection efficiency read?
A: 1.79 ± 0.2

Q: For `CN(C)CCN(Cc1ccccc1)c1ccccn1` [Tripelennamine hydrochloride], which transfection efficiency is on record?
A: 1.46 ± 0.4
